Test results: the supplement of paper PMC10849652
The other results are listed elsewhere or left out.

Chains of the proteins cited; added tags and fusions are not shown. Lines headed by an entry give the natural chain unless they say otherwise; changes in a name come on top.
UniProt P28070, whole entry, looked up: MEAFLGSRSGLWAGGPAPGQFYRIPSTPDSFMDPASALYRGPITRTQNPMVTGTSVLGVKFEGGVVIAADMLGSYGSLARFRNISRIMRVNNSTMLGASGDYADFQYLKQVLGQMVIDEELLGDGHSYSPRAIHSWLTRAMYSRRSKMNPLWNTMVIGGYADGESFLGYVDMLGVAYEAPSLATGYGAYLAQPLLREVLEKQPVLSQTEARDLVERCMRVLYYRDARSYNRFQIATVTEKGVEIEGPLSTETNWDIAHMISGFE
UniProt Q9Y520: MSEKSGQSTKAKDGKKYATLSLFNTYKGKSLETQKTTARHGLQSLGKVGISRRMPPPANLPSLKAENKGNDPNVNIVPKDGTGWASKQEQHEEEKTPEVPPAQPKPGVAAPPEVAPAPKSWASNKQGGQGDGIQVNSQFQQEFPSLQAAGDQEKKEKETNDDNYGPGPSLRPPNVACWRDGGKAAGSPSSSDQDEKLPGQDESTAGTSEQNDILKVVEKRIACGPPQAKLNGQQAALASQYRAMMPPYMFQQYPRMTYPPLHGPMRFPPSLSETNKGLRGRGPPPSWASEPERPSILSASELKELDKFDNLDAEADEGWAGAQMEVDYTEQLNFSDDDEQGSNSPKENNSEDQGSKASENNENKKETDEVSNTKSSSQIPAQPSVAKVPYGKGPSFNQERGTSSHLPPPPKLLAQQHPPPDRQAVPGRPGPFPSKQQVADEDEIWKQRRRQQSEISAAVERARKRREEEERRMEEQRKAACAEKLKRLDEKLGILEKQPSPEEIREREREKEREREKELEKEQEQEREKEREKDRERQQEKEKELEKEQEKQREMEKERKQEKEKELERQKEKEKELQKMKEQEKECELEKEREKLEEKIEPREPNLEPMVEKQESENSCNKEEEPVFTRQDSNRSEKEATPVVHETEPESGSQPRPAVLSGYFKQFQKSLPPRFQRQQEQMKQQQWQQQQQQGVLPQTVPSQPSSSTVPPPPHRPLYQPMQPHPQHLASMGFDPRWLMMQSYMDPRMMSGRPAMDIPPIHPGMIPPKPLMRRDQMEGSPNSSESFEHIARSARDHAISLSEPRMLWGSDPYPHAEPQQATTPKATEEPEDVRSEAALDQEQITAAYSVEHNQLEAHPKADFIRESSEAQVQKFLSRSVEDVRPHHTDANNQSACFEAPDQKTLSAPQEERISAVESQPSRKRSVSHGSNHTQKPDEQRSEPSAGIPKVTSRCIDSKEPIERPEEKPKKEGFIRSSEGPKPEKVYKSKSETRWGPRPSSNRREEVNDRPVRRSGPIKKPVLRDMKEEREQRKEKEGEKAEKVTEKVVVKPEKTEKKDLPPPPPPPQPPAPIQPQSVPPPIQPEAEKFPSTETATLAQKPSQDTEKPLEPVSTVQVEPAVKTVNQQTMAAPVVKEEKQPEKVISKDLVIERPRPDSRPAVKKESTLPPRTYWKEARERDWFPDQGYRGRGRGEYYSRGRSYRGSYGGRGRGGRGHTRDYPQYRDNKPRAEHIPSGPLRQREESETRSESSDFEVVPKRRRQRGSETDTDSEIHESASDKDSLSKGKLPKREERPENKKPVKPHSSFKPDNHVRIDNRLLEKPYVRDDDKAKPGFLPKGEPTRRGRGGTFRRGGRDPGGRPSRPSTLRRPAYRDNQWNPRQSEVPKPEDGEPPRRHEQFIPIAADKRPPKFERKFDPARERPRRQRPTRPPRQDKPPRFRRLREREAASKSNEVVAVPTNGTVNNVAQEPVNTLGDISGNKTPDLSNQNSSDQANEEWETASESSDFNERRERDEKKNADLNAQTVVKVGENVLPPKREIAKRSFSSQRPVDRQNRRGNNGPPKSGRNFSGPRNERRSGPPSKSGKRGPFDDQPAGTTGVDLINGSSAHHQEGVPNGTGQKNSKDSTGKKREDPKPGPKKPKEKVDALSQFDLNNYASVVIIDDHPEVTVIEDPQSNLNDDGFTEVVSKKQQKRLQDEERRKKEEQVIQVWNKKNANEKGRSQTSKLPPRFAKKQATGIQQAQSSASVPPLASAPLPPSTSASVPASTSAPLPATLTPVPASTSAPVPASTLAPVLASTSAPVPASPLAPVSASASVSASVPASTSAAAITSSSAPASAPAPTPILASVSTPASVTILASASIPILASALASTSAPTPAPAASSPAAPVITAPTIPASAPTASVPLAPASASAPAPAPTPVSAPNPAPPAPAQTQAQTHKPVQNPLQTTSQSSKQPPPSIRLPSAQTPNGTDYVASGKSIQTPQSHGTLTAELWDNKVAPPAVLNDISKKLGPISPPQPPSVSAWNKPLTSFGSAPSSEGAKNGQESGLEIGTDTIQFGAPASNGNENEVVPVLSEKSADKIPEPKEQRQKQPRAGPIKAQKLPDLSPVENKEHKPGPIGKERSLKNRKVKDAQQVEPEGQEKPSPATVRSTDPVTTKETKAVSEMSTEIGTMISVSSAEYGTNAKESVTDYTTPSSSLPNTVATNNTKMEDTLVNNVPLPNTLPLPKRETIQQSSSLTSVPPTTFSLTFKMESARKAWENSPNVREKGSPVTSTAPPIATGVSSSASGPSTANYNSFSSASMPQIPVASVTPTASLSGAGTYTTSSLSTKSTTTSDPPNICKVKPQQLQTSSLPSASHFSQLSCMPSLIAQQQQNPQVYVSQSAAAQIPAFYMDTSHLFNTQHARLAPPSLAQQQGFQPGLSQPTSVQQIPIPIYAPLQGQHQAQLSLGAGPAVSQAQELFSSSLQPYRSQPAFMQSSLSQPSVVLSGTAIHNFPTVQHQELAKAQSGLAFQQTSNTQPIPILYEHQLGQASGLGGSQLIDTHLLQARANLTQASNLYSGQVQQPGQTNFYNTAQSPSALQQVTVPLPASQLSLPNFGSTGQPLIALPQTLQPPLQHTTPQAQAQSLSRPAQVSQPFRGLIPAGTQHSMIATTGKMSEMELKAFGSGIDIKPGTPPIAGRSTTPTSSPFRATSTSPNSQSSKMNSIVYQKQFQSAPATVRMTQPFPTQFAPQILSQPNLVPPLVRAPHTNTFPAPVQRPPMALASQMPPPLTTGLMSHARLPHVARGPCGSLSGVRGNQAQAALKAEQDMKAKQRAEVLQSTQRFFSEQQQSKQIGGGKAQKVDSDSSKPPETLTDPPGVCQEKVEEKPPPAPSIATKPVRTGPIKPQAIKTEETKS
UniProt Q14558: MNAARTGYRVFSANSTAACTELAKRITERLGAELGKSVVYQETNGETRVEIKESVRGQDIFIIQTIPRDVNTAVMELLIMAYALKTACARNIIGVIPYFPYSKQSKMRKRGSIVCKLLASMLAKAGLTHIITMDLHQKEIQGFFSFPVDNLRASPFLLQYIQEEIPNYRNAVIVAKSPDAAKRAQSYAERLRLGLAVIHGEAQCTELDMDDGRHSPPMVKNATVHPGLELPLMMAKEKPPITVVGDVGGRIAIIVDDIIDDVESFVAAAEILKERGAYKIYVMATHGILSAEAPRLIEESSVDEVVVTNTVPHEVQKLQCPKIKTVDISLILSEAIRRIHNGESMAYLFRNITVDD
UniProt Q9Y617: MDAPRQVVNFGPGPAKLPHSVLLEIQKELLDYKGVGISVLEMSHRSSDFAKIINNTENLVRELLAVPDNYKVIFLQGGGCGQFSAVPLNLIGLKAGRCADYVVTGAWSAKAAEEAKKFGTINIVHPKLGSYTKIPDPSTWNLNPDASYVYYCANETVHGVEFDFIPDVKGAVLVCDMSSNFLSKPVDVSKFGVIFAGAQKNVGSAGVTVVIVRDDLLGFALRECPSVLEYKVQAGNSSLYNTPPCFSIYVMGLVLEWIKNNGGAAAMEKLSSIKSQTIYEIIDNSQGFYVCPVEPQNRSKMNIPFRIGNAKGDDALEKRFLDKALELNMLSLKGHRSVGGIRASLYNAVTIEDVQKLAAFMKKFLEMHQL
UniProt O00231, whole entry, looked up: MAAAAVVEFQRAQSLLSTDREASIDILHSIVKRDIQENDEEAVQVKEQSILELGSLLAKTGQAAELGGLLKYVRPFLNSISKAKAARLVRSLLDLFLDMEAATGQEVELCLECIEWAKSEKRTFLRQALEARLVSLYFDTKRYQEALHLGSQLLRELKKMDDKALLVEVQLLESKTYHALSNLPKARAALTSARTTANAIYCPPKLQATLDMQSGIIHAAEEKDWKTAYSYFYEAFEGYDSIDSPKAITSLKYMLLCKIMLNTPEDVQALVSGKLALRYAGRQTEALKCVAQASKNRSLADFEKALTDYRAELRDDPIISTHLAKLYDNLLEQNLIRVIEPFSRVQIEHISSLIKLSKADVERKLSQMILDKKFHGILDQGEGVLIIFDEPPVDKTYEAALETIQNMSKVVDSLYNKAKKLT
UniProt P29350: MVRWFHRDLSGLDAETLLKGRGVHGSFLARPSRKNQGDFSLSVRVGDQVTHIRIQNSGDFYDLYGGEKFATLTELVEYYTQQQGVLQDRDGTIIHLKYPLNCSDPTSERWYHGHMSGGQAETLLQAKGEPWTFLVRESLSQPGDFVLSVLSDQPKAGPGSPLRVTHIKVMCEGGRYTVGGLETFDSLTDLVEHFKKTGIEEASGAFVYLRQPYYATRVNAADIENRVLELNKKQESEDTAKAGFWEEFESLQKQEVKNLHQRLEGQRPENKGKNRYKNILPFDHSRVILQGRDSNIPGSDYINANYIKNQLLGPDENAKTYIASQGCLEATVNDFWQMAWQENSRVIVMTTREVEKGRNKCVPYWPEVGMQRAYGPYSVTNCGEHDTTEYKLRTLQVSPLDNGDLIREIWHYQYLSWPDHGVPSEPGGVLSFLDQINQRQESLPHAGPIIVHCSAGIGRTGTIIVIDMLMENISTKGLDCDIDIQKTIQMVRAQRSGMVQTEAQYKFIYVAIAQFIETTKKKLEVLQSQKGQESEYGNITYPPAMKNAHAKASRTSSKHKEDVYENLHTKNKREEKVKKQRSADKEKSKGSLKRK
UniProt Q8WXF1: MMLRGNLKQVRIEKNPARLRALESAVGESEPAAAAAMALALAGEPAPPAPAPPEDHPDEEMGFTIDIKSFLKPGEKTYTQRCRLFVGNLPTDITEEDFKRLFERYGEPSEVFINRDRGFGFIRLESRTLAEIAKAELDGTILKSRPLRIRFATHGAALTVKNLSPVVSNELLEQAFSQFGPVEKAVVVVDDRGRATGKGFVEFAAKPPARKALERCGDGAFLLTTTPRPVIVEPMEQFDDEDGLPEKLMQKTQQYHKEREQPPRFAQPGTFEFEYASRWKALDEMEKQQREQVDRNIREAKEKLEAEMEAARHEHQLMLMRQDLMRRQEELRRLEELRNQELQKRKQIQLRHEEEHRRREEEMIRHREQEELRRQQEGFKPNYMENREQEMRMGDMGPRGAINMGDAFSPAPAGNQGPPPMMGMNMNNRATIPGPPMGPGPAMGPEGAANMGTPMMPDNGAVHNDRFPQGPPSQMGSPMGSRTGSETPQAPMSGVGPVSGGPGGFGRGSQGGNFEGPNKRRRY
UniProt P25789: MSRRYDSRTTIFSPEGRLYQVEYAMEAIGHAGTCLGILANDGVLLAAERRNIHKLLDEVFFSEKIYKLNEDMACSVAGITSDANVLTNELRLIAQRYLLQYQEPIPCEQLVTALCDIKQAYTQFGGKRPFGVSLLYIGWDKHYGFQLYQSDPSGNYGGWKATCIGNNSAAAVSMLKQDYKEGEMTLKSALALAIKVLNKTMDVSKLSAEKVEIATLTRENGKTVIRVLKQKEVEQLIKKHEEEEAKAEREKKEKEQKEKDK
UniProt Q03393: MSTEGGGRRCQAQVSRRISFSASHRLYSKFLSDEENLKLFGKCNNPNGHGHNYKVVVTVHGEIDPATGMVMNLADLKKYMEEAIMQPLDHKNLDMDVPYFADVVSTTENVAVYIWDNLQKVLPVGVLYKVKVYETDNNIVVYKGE
UniProt Q96M27: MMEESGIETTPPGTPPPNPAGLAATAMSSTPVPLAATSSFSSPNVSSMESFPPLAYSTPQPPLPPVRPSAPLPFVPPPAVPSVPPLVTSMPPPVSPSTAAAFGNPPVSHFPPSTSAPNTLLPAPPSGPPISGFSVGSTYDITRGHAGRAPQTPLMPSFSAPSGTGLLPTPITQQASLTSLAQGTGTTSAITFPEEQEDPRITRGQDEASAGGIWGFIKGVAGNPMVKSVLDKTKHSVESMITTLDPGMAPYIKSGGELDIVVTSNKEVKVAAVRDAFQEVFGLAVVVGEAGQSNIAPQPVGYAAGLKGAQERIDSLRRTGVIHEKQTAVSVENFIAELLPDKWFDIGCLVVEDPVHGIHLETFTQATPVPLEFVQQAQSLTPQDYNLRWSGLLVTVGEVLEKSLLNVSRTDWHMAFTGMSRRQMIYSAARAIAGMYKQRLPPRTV
UniProt Q9Y6M0: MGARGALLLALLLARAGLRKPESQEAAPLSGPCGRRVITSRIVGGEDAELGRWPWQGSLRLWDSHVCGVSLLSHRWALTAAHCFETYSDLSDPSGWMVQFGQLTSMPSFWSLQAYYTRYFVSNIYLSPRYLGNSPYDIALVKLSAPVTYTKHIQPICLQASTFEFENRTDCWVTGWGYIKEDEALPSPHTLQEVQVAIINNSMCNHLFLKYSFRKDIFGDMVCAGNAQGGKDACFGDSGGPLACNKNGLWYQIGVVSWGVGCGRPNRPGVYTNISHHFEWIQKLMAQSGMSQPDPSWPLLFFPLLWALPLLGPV

What was measured:
Assay in all cases: log2 fold change, soluble protein after heating vs DMSO (PISA); higher = thermal stabilisation; K562 lysate, 10 uM; active = over 0.2 and 3.5 SD of the protein, either way, in both replicates (recomputed)
[1] = compound: C1=CC=C(C=C1)[C@H](COC2=CC3=C(C=C2)NC(=O)N3)NC(=O)C4=CC=CN(C4=O)CC5=CC(=C(C=C5)F)F
How it was run: (§1)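 A 30 min treatment with 10 μM compound was applied to crude K562 extract at 1 mg/mL protein in PBS pH 7.4 with 1 mM MgCl2. Heating for 3 min spanned 48°C-58°C, after which aliquots were pooled, adjusted to 0.5% NP-40 at 4°C and spun at 21,000xg for 90 min. TMTpro 16plex LC-MS/MS of the supernatant, with channel sums equalised, gave values recorded as log-two fold change in thermal stability against solvent controls, from duplicates.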

[2] = compound: CC1=C(SC2=C1C(=N[C@H](C3=NN=C(N32)C)CC(=O)N)C4=CC=C(C=C4)Cl)C
How it was run: as §1

[3] = compound: CC1=C2C(=CC=C1)N=C(N(C2=O)C3=CC=CC=C3C)CN4C=NC5=C(N=CN=C54)N
How it was run: as §1

[4] = compound: Cc1sc2c(c1C)C(c1ccc(Cl)cc1)=N[C@@H](CC(=O)OC(C)(C)C)c1nnc(C)n1-2
How it was run: as §1

[5] = compound: c1ccc([C@@H]2C[C@H]2NC2CCNCC2)cc1
How it was run: as §1

Row | Target | log2 fold change [1] | log2 fold change [2] | log2 fold change [3] | log2 fold change [4] | log2 fold change [5]
1 | PTK2 (UniProt Q05397) | inactive: 0.006 | inactive: -0.027 | inactive: -0.003 | inactive: 0.023 | inactive: -0.131
2 | PUS3 (UniProt Q9BZE2) | inactive: -0.006 | inactive: -0.089 | inactive: -0.073 | inactive: 0.082 | inactive: 0.135
3 | PSMB9 (UniProt P28065) | inactive: 0.074 | inactive: 0.159 | inactive: 0.111 | inactive: -0.095 | inactive: -0.013
4 | PTPDC1 isoform 2 (UniProt A2A3K4) | inactive: -0.005 | inactive: 0.083 | inactive: 0.063 | – | –
5 | PUM3 (UniProt Q15397) | inactive: -0.049 | inactive: 0.053 | inactive: 0.055 | inactive: 0.021 | inactive: 0.08
6 | PSMD1, A0A087WW66 | inactive: 0.021 | inactive: 0.016 | – | – | –
7 | PRUNE2 isoform 3 (UniProt Q8WUY3) | inactive: 0.076 | inactive: 0.031 | inactive: -0.112 | inactive: -0.063 | –
8 | PTGES3 isoform 4 (UniProt Q15185) | inactive: 0.099 | inactive: -0.042 | – | – | –
9 | PTPN23 (UniProt Q9H3S7) | inactive: -0.033 | inactive: 0.011 | inactive: 0.007 | inactive: 0.024 | inactive: 0
10 | PSMB4 (UniProt P28070) | inactive: 0.012 | inactive: 0 | inactive: 0.008 | inactive: -0.023 | inactive: -0.011
11 | PTMA (UniProt P06454) | inactive: 0.015 | inactive: 0.018 | inactive: 0.01 | inactive: -0.004 | inactive: 0.241
12 | PTBP1 (UniProt P26599) | inactive: -0.011 | inactive: 0.016 | inactive: 0.01 | inactive: 0.123 | inactive: 0.027
13 | PTPRA (UniProt P18433) | inactive: 0.012 | inactive: 0.071 | inactive: 0.032 | inactive: 0.003 | inactive: 0.046
14 | PRRC2C isoform 7 (UniProt Q9Y520) | inactive: 0.006 | inactive: -0.001 | inactive: 0.005 | inactive: -0.006 | inactive: -0.042
15 | PTCD3 (UniProt Q96EY7) | inactive: 0.04 | inactive: 0.042 | inactive: 0.024 | inactive: 0.06 | inactive: 0.025
16 | PVR (UniProt P15151) | inactive: 0.025 | inactive: -0.001 | inactive: 0.027 | inactive: 0.007 | inactive: -0.05
17 | PSRC1 (UniProt Q6PGN9) | inactive: -0.011 | inactive: -0.014 | inactive: -0.076 | inactive: 0.084 | inactive: -0.06
18 | PRPSAP1 isoform 2 (UniProt Q14558) | inactive: 0.026 | inactive: 0.008 | inactive: 0.039 | inactive: -0.002 | inactive: 0.011
19 | PTMS (UniProt P20962) | inactive: 0.037 | inactive: 0.004 | inactive: 0.016 | inactive: 0.013 | inactive: 0.007
20 | PSAT1 (UniProt Q9Y617) | inactive: 0.011 | inactive: -0.011 | inactive: 0.028 | inactive: 0.009 | inactive: -0.018
21 | PSMB5 (UniProt P28074) | inactive: 0.029 | inactive: 0.022 | inactive: -0.037 | inactive: 0.02 | inactive: -0.015
22 | PSMD11 (UniProt O00231) | inactive: 0 | inactive: 0.013 | inactive: -0.015 | inactive: 0.04 | inactive: 0.019
23 | PWP1 (UniProt Q13610) | inactive: 0.041 | inactive: -0.041 | inactive: -0.052 | inactive: -0.004 | inactive: 0.088
24 | PTPN6 isoform 4 (UniProt P29350) | inactive: 0.12 | inactive: 0.029 | inactive: 0.063 | inactive: 0.047 | inactive: 0.133
25 | PSMA5 (UniProt P28066) | inactive: 0.001 | inactive: -0.011 | inactive: -0.018 | inactive: -0.022 | inactive: -0.087
26 | PSMD8 (UniProt P48556) | inactive: -0.03 | inactive: -0.05 | inactive: 0.027 | inactive: 0.009 | inactive: -0.027
27 | PTGFRN (UniProt Q9P2B2) | inactive: 0.047 | inactive: 0.027 | inactive: -0.026 | inactive: 0 | inactive: 0.017

Taken from above for reference:
Row | Target | log2 fold change [1] | log2 fold change [2] | log2 fold change [3] | log2 fold change [4] | log2 fold change [5]
16 | PVR (UniProt P15151) | inactive: 0.025 | inactive: -0.001 | inactive: 0.027 | inactive: 0.007 | inactive: -0.05
17 | PSRC1 (UniProt Q6PGN9) | inactive: -0.011 | inactive: -0.014 | inactive: -0.076 | inactive: 0.084 | inactive: -0.06

Remaining list, next part.

Row | Target | log2 fold change [1] | log2 fold change [2] | log2 fold change [3] | log2 fold change [4] | log2 fold change [5]
28 | PTAR1 (UniProt Q7Z6K3) | inactive: 0.087 | inactive: 0.056 | inactive: 0.018 | inactive: 0.057 | inactive: -0.033
29 | PSPC1 (UniProt Q8WXF1) | inactive: 0.026 | inactive: -0.015 | inactive: 0.019 | inactive: 0.047 | inactive: 0.013
30 | PSMA4 (UniProt P25789) | inactive: 0.029 | inactive: -0.003 | inactive: 0.003 | inactive: -0.045 | inactive: 0.012
31 | PTER (UniProt Q96BW5) | inactive: 0.011 | inactive: 0.052 | inactive: 0.022 | inactive: -0.037 | inactive: 0.022
32 | PTS (UniProt Q03393) | inactive: -0.024 | active: -0.274 | inactive: 0.032 | inactive: -0.093 | inactive: 0.022
33 | PSMD1 (UniProt Q99460) | inactive: 0.003 | inactive: -0.017 | inactive: 0.017 | inactive: 0.018 | inactive: 0.031
34 | PSMG2 (UniProt Q969U7) | inactive: -0.021 | inactive: 0.008 | inactive: -0.013 | inactive: -0.027 | inactive: -0.042
35 | PTGR2 (UniProt Q8N8N7) | inactive: 0.009 | inactive: 0.039 | inactive: -0.003 | inactive: -0.048 | inactive: -0.004
36 | PTPN11 isoform 1 (UniProt Q06124) | inactive: 0.003 | inactive: -0.035 | inactive: 0.024 | inactive: 0.025 | inactive: -0.003
37 | PUS7L (UniProt Q9H0K6) | inactive: 0.019 | inactive: 0.019 | inactive: -0.014 | inactive: -0.003 | inactive: -0.03
38 | PSMG4 isoform 2 (UniProt Q5JS54) | inactive: -0.078 | inactive: -0.063 | inactive: 0.067 | inactive: 0.025 | inactive: 0.098
39 | PTPN7 isoform 3 (UniProt P35236) | inactive: -0.028 | inactive: 0.002 | inactive: -0.031 | inactive: 0.015 | inactive: -0.012
40 | PSIP1 (UniProt O75475) | inactive: 0.008 | inactive: -0.002 | inactive: 0.007 | inactive: -0.037 | inactive: -0.052
41 | PSMB10 (UniProt P40306) | inactive: -0.054 | inactive: -0.128 | inactive: -0.1 | inactive: 0.07 | inactive: -0.061
42 | PRPF8 (UniProt Q6P2Q9) | inactive: 0.014 | inactive: -0.017 | inactive: 0.011 | inactive: 0.016 | inactive: 0.044
43 | PTPMT1 (UniProt Q8WUK0) | inactive: -0.186 | inactive: 0.113 | inactive: 0.012 | inactive: 0.041 | inactive: 0.083
44 | PSMB6 (UniProt P28072) | inactive: 0.027 | inactive: -0.018 | inactive: 0.007 | inactive: 0.001 | inactive: -0.016
45 | PTK2B (UniProt Q14289) | inactive: -0.056 | inactive: -0.012 | inactive: -0.036 | inactive: -0.009 | inactive: -0.034
46 | PSMA7 (UniProt O14818) | inactive: -0.021 | inactive: 0.013 | inactive: -0.012 | inactive: 0.016 | inactive: 0.041
47 | PRRC1 (UniProt Q96M27) | inactive: 0.04 | inactive: 0 | inactive: 0.021 | inactive: -0.014 | inactive: -0.034
48 | PSMD4 (UniProt P55036) | inactive: -0.003 | inactive: -0.01 | inactive: 0.022 | inactive: -0.009 | inactive: -0.03
49 | PRSS21 (UniProt Q9Y6M0) | inactive: -0.026 | inactive: -0.017 | inactive: 0.049 | inactive: 0.036 | inactive: -0.061
50 | PTPN12 (UniProt Q05209) | inactive: 0.006 | inactive: -0.024 | inactive: 0.018 | inactive: -0.051 | inactive: 0.008
51 | PSPH (UniProt P78330) | inactive: -0.023 | inactive: 0.068 | inactive: 0.017 | inactive: 0.015 | inactive: -0.065
52 | PSMB7 (UniProt Q99436) | inactive: 0.027 | inactive: 0.032 | inactive: -0.01 | inactive: -0.049 | inactive: -0.013
53 | PSMC4 (UniProt P43686) | inactive: -0.028 | inactive: 0.039 | inactive: 0.007 | inactive: 0.008 | inactive: 0.049
54 | PSMC3 (UniProt P17980) | inactive: -0.001 | inactive: 0.01 | inactive: -0.004 | inactive: 0.007 | inactive: 0.03
